PubChem BioAssay AID602203 – INSERM – 2012
The deposit covers 999 reagents; below is an unselected part. Over the whole deposit, 85 (8.5%) are marked active. 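Unclear how single-siRNA scores of -1, 0 or +1 give the printed -4 to 4 range; calls lie near -3 or 3 and beyond.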 Entries without a mark were called inactive. Not stated in the record: the amount of reagent, the time to read-out, the dose of the treatment.

- Test: 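Follow-up of knock-downs that sensitize or protect A549 cells against cisplatin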 (follow-up of hits)
- Cell system: human A549 lung cancer cells
- Reagents: siRNA pair against human genes
- Challenge: cisplatin at a dose killing half of control-siRNA cells, given 48 h after transfection
- Measured: 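Two siRNAs per gene scored +1 protective, -1 sensitizing, 0 if toxic by LDH or growth-reducing by WST-1; cisplatin given 48 h later at 50% control kill; scores summed, mean death shift versus control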
- Direction: summed siRNA score for cisplatin death: higher = more siRNAs reduced cisplatin-induced cell death; change in cisplatin death versus control: higher = fewer cells died than in control
- Rule for the call: In these data the active calls have summed siRNA score for cisplatin death at about -3 or lower, or at about 3 or higher

With knock-down of ARSG (GeneID 22901) the results were summed siRNA score for cisplatin death -1.
GLA (GeneID 2717) gave summed siRNA score for cisplatin death -2.
Depletion of PPP2R1B (GeneID 5519) resulted in: summed siRNA score for cisplatin death -1.
After knock-down of ALG11 (GeneID 440138), the record shows summed siRNA score for cisplatin death 0.
Against DNAJC18 (GeneID 202052), the entry reads summed siRNA score for cisplatin death 0.
With knock-down of GLRX3 (GeneID 10539) the results were summed siRNA score for cisplatin death 1.
GGA1 (GeneID 26088) scored summed siRNA score for cisplatin death -2.
With knock-down of LRRC37A2 (GeneID 474170) the results were summed siRNA score for cisplatin death 2.
LRRC37A6P (GeneID 387646) showed summed siRNA score for cisplatin death 0.
Against KLRC4 (GeneID 8302), the entry reads summed siRNA score for cisplatin death -1.
Silencing of GUCY2D (GeneID 3000) gave: summed siRNA score for cisplatin death -1.
Against NTN3 (GeneID 4917) the deposit lists summed siRNA score for cisplatin death 2.
Against LOC440287 the deposit lists summed siRNA score for cisplatin death 1.
TINCR (GeneID 257000) showed summed siRNA score for cisplatin death -1.
RCVRN (GeneID 5957) showed summed siRNA score for cisplatin death -2.
With knock-down of BTN3A2 (GeneID 11118), the record shows summed siRNA score for cisplatin death -2.
LOC440978 gave summed siRNA score for cisplatin death 0.
Against NOVA1 (GeneID 4857) the deposit lists summed siRNA score for cisplatin death -1.
With knock-down of OTOP3 (GeneID 347741), the record shows summed siRNA score for cisplatin death 0.
With knock-down of EMP1 (GeneID 2012), the record shows summed siRNA score for cisplatin death 1.
RAB3C (GeneID 115827) gave summed siRNA score for cisplatin death -3 (active); change in cisplatin death versus control (percentage points) = -8.4.
PON2 (GeneID 5445) scored summed siRNA score for cisplatin death -1.
With knock-down of NUP153 (GeneID 9972) the results were summed siRNA score for cisplatin death 0.
Against AREG (GeneID 374), the entry reads summed siRNA score for cisplatin death 0.
Silencing of SCAF4 (GeneID 57466) gave: summed siRNA score for cisplatin death 1.
For AKAP8 (GeneID 10270) the deposit lists summed siRNA score for cisplatin death 0.
Against KLK3 (GeneID 354) the deposit lists summed siRNA score for cisplatin death -1.
Silencing of KDM4B (GeneID 23030) came out at: summed siRNA score for cisplatin death 0.
For NUDT9 (GeneID 53343), the values are summed siRNA score for cisplatin death -2.
PPIAP58 (GeneID 126170) gave summed siRNA score for cisplatin death 0.
For CELSR1 (GeneID 9620), the values are summed siRNA score for cisplatin death 1.

Entries listed so far called active (1):
RAB3C (GeneID 115827) | summed siRNA score for cisplatin death: -3 (active); change in cisplatin death versus control (percentage points): -8.4

Further results follow:
KCNK16 (GeneID 83795) gave summed siRNA score for cisplatin death 1.
For SGK3 (GeneID 23678) the deposit lists summed siRNA score for cisplatin death 1.
Knock-down of FN3KRP (GeneID 79672) resulted in: summed siRNA score for cisplatin death 3 (active); change in cisplatin death versus control (percentage points) = 9.76.
NSMAF (GeneID 8439) gave summed siRNA score for cisplatin death -2.
With knock-down of APAF1 (GeneID 317) the results were summed siRNA score for cisplatin death 4 (active); change in cisplatin death versus control (percentage points) = 12.7.
Depletion of DDN (GeneID 23109) came out at: summed siRNA score for cisplatin death 1.
After knock-down of OR51B5 (GeneID 282763), the screen gave summed siRNA score for cisplatin death 1.
PHB1 (GeneID 5245) showed summed siRNA score for cisplatin death -1.
Silencing of CD151 (GeneID 977) resulted in: summed siRNA score for cisplatin death -3 (active); change in cisplatin death versus control (percentage points) = -9.12.
For DPF1 (GeneID 8193), the values are summed siRNA score for cisplatin death 1.
LOC390913 showed summed siRNA score for cisplatin death 2.
Depletion of NCOA3 (GeneID 8202) gave: summed siRNA score for cisplatin death -3 (active); change in cisplatin death versus control (percentage points) = -11.2.
Knock-down of IVL (GeneID 3713) gave: summed siRNA score for cisplatin death 0.
Depletion of SOCS6 (GeneID 9306) came out at: summed siRNA score for cisplatin death 3 (active); change in cisplatin death versus control (percentage points) = 17.1.
With knock-down of PBXIP1 (GeneID 57326) the results were summed siRNA score for cisplatin death 0.
Knock-down of LRRC4C (GeneID 57689) gave: summed siRNA score for cisplatin death -2.
With knock-down of PPM1J (GeneID 333926) the results were summed siRNA score for cisplatin death -3 (active); change in cisplatin death versus control (percentage points) = -8.13.
After knock-down of USP48 (GeneID 84196), the record shows summed siRNA score for cisplatin death 1.
Silencing of LOC442386 resulted in: summed siRNA score for cisplatin death 1.
Depletion of PPM1B (GeneID 5495) came out at: summed siRNA score for cisplatin death -3 (active); change in cisplatin death versus control (percentage points) = -4.3.
Against TRIM42 (GeneID 287015) the deposit lists summed siRNA score for cisplatin death 0.
With knock-down of JARID2 (GeneID 3720), the record shows summed siRNA score for cisplatin death 0.
Against IFNG (GeneID 3458) the deposit lists summed siRNA score for cisplatin death -2.
KRTAP12-4 (GeneID 386684) showed summed siRNA score for cisplatin death 0.
Silencing of DTNBP1 (GeneID 84062) resulted in: summed siRNA score for cisplatin death 2.
Silencing of MUC6 (GeneID 4588) resulted in: summed siRNA score for cisplatin death 0.
Depletion of STK38 (GeneID 11329) resulted in: summed siRNA score for cisplatin death -1.
For HAS3 (GeneID 3038), the entry reads summed siRNA score for cisplatin death 0.
With knock-down of DSC2 (GeneID 1824), the screen gave summed siRNA score for cisplatin death -1.
